The target in the test is T1, BASL, full-length, fused with Gal4 DNA-binding domain (Arabidopsis thaliana) (UniProt Q5BPF3).
T1 sequence: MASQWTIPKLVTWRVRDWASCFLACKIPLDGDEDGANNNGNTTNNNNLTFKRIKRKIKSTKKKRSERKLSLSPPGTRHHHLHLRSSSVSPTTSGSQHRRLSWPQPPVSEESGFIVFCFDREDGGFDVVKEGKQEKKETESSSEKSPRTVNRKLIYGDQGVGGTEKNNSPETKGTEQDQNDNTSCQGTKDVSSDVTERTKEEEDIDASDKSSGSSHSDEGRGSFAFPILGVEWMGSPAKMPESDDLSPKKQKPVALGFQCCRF
Description: two-hybrid; pairwise; bait in pGBKT7 (BD), prey in pGADT7 (AD), strain AH109; tested on SD/-Leu/-Trp/-His, 3 days at 30 °C; 3-AT where needed.

Results on one molecule are retold here after publication PMC8748900.

These are yes or no findings as the source states them, for the method shown. Some results given as binding are weak or reduced against the parent protein; the word gives no strength. Where a sequence is shown, tags or fusion partners need not be part of it.

B1: PRAF4_BRX (BRX domain of PRAF4/RLD1), fused with Gal4 activation domain (domain or fragment, UniProt Q947D2 1023-1078)
chain: AEWIEQYEPGVYITLVALHDGTRDLRRVRFSRRRFGEHQAETWWSENREKVYEKYN
Consider B1, for which the binding result is on record as “binds”.
